Test results published in the supplement of paper PMC12823440, “Inhibitors supercharge kinase turnover through native proteolytic circuits” (Nature, 2025).
The list shows a part of the results. The calls rarely recur for the same compound in another form.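 In K562 cells expressing nanoluciferase-fused kinases, luminescence was recorded at 4 h intervals between 2 and 18 h, normalized as percent of control with DMSO at 100% and a positive control at 0%. A significant (2 sigma) signal drop marks a time point as decreased. The authors' rule for a hit is not shown and takes in more than the number of time points.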

By UniProt entry, the sequences of proteins in these tests, tags left out. Where a name states a change or a piece, a line headed by the entry shows the natural chain unless it says otherwise.
UniProt P28482, whole entry: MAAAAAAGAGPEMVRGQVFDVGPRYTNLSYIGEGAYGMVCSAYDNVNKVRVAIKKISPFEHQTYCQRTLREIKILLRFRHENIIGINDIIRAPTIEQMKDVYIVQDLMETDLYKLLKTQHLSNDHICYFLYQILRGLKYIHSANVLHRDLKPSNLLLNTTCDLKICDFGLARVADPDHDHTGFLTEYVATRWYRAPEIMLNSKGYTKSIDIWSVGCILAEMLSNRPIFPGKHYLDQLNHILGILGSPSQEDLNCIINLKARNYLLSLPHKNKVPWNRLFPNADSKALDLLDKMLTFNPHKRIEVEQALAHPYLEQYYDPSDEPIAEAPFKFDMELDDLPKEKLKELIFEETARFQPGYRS
UniProt P31152, whole entry: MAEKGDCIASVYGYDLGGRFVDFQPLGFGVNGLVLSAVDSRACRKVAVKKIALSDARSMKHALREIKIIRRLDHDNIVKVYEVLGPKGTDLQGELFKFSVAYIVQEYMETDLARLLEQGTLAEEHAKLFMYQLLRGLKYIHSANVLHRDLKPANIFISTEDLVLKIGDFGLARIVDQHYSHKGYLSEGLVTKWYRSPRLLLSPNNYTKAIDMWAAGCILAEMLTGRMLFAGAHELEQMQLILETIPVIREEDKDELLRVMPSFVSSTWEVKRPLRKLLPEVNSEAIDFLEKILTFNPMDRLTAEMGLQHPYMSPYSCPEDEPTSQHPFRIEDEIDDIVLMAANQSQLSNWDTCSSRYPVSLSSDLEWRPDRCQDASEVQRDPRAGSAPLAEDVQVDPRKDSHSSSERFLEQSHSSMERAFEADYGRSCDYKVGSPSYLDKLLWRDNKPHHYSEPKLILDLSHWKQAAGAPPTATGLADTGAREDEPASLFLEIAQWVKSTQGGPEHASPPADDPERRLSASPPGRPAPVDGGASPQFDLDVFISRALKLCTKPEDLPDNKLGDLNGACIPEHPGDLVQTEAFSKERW
UniProt P49137, whole entry, looked up: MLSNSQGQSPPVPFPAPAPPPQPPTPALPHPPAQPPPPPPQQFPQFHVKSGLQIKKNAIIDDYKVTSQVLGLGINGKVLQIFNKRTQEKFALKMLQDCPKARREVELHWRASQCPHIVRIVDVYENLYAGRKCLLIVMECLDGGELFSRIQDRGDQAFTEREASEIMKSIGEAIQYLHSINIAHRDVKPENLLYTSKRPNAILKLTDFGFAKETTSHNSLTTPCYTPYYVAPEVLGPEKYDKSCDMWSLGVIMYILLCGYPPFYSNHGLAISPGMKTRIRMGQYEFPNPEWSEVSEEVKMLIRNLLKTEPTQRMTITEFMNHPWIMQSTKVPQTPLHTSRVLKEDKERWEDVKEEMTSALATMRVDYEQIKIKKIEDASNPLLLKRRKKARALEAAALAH
UniProt Q9BUB5: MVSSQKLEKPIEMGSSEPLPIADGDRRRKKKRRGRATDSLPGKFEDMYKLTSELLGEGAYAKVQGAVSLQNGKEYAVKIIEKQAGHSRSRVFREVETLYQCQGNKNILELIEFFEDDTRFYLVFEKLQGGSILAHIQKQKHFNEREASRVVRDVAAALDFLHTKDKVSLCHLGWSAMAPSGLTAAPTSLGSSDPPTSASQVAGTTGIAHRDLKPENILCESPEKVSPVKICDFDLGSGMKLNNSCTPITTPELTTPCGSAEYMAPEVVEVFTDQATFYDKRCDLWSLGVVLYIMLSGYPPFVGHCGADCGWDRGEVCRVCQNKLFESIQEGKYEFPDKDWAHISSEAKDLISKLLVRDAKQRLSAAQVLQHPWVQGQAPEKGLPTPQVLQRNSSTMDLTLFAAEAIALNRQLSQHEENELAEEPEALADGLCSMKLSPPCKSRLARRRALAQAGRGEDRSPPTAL
UniProt Q16620, whole entry, looked up: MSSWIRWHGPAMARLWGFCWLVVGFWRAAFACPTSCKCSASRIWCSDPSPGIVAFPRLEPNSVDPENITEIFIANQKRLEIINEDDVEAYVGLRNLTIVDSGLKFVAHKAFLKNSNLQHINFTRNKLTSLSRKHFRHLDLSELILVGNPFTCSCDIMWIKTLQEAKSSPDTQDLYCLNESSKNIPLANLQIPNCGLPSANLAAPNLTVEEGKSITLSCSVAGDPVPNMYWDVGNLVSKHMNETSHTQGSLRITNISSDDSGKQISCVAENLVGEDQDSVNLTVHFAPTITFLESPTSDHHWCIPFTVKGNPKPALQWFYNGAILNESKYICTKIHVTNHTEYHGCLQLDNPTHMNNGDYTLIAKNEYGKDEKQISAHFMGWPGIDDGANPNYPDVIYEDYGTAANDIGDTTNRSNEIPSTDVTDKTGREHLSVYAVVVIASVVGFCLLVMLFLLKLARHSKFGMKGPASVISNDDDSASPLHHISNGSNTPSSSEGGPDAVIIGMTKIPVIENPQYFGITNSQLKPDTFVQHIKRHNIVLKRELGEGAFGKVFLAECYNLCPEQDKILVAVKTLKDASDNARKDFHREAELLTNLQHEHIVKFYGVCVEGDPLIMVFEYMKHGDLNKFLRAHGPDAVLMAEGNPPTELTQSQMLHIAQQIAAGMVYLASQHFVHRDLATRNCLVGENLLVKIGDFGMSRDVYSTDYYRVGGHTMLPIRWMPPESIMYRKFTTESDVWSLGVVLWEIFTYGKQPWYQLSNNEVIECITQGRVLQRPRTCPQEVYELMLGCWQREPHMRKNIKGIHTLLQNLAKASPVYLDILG
UniProt Q16288, whole entry, looked up: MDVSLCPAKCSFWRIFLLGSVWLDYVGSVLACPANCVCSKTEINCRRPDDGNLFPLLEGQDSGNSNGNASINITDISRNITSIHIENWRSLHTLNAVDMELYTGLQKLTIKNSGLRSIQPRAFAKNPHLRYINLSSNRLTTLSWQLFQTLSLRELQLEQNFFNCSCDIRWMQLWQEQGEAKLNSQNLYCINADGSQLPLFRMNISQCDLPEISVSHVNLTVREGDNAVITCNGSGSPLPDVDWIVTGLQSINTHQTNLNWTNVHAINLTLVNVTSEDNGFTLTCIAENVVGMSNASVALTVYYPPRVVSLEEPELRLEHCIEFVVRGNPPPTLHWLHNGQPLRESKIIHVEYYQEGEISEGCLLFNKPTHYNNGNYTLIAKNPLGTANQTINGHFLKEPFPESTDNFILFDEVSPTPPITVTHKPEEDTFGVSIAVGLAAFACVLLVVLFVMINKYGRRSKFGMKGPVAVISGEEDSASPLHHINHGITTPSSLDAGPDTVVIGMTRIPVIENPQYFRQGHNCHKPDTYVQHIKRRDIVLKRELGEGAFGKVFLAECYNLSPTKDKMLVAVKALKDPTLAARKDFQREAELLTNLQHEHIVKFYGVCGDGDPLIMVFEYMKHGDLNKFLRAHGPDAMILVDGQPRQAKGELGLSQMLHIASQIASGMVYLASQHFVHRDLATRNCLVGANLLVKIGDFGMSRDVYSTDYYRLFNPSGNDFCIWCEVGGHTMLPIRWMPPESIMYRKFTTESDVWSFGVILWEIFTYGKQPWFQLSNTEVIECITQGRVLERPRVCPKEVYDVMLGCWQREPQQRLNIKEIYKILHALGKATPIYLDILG
UniProt O96013: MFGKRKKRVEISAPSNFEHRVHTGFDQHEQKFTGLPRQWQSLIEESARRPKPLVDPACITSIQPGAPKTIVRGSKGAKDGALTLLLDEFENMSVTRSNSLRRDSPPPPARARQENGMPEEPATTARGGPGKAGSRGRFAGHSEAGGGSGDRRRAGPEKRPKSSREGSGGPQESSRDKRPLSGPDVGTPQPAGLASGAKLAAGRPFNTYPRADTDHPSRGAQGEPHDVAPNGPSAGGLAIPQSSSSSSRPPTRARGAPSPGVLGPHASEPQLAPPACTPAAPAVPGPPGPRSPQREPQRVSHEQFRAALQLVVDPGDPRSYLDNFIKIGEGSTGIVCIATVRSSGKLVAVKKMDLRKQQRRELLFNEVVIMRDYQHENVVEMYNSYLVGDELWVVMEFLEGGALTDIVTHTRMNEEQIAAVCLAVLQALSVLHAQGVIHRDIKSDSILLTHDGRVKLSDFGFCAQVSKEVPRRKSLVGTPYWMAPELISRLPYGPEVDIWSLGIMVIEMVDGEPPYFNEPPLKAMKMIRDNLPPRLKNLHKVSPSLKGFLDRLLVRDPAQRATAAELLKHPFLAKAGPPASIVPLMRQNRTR
UniProt Q96KB5: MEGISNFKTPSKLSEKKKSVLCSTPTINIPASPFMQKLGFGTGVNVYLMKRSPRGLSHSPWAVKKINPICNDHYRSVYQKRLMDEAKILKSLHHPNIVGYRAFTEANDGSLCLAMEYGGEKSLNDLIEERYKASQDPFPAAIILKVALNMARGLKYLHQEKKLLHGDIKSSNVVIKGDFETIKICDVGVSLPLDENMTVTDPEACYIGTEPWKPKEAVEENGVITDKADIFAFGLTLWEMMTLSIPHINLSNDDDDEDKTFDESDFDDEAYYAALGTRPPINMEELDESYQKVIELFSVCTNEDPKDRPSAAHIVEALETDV
UniProt P09619, whole entry: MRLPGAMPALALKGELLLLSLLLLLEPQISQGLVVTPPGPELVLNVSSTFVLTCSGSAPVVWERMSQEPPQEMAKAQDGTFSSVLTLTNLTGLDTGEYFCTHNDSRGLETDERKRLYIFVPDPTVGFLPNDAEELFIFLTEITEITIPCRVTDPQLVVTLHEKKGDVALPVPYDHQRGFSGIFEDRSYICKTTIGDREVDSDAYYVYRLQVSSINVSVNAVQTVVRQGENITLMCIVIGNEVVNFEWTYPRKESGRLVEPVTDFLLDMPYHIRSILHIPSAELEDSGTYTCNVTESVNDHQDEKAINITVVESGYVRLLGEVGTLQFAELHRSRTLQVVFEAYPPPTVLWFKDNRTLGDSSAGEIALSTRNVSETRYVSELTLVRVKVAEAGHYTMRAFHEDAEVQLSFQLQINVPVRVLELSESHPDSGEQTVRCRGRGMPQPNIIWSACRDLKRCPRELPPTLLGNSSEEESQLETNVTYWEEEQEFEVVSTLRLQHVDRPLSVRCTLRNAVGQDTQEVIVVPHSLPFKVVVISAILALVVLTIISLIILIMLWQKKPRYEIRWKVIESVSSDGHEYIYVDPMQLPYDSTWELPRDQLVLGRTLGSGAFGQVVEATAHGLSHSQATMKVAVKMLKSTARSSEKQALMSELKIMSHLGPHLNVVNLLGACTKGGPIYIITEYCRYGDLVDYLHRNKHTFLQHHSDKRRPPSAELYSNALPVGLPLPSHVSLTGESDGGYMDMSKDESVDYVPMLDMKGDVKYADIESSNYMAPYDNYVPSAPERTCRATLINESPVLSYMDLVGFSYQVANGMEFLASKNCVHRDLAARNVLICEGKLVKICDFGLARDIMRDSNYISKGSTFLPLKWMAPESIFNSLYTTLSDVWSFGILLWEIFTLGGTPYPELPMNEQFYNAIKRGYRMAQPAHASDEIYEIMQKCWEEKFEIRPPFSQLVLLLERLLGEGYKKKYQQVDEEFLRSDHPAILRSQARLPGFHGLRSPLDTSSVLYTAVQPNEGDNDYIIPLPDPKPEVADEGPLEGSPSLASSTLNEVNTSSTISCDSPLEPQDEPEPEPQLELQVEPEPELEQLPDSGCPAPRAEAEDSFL
UniProt Q15118, whole entry, looked up: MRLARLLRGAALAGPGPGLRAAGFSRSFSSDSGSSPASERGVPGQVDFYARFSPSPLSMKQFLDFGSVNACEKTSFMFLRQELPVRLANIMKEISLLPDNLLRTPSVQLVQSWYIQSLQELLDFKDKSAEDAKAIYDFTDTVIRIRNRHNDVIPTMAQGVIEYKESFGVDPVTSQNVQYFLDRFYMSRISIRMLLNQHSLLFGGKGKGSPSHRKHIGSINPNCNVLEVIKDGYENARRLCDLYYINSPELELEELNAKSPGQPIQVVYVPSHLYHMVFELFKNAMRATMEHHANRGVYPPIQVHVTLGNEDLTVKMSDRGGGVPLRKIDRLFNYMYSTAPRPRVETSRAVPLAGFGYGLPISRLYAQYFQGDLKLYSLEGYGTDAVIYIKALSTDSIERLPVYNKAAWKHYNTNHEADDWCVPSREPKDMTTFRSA

Key:
Test in all cases: kinase-Nluc reporter destabilization hit call (1 = scored as downregulated) (binary); higher = compound decreases kinase abundance
Settings in all cases: K562, 2-18 h
MAPK1 = MAPK1 (UniProt P28482)
MAPK4 = MAPK4 (UniProt P31152)
MAPKAPK2 = MAPKAPK2 (UniProt P49137)
MKNK1 = MKNK1 (UniProt Q9BUB5)
NTRK2 = NTRK2 (UniProt Q16620)
NTRK3 = NTRK3 (UniProt Q16288)
PAK4 = PAK4 (UniProt O96013)
PBK = PBK (UniProt Q96KB5)
PDGFRB = PDGFRB (UniProt P09619)
PDK1 = PDK1 (UniProt Q15118)

Measured: kinase-Nluc reporter destabilization hit call

C=CC(=O)N1C[C@@H](Nc2ncnc3[nH]ccc23)CC[C@H]1C [(2R,5S)-Ritlecitinib]
inactive: MAPK1; 10 µM 0 | MAPK4; 10 µM 0 | MAPKAPK2; 10 µM 0 | MKNK1; 10 µM 0 | NTRK2; 10 µM 0 | NTRK3; 10 µM 0 | PAK4; 10 µM 0 | PBK; 10 µM 0 | PDGFRB; 10 µM 0 | PDK1; 10 µM 0

COc1cc(N2CCN(C)CC2)ccc1Nc1nccc(-c2cn(C)c3cnccc23)n1
inactive: MAPK1; 10 µM 0 | MAPK4; 10 µM 0 | MAPKAPK2; 10 µM 0 | MKNK1; 10 µM 0 | NTRK2; 10 µM 0 | NTRK3; 10 µM 0 | PAK4; 10 µM 0 | PBK; 10 µM 0 | PDGFRB; 10 µM 0 | PDK1; 10 µM 0

COc1ccc(-c2c[nH]c3nccc(-c4ccsc4)c23)c(OC)c1
inactive: MAPK1; 10 µM 0 | MAPK4; 10 µM 0 | MAPKAPK2; 10 µM 0 | MKNK1; 10 µM 0 | NTRK2; 10 µM 0 | NTRK3; 10 µM 0 | PAK4; 10 µM 0 | PBK; 10 µM 0 | PDGFRB; 10 µM 0 | PDK1; 10 µM 0

Cc1ccc(O)cc1Nc1ccnc(Nc2cccc(C(N)=O)c2)n1 [Lck inhibitor 2]
inactive: MAPK1; 10 µM 0 | MAPK4; 10 µM 0 | MAPKAPK2; 10 µM 0 | MKNK1; 10 µM 0 | NTRK2; 10 µM 0 | NTRK3; 10 µM 0 | PAK4; 10 µM 0 | PBK; 10 µM 0 | PDGFRB; 10 µM 0 | PDK1; 10 µM 0

CCn1c(=O)c(-c2cc(NC(=O)Nc3ccccc3)c(F)cc2Br)cc2cnc(NC)cc21 [Ripretinib]
active: MKNK1; 10 µM 1
inactive: MAPK1; 10 µM 0 | MAPK4; 10 µM 0 | MAPKAPK2; 10 µM 0 | NTRK2; 10 µM 0 | NTRK3; 10 µM 0 | PAK4; 10 µM 0 | PBK; 10 µM 0 | PDGFRB; 10 µM 0 | PDK1; 10 µM 0

C=CC(=O)N1CCC[C@@H](n2nc(-c3ccc(Oc4ccccc4)cc3)c3c(N)ncnc32)C1 [Ibrutinib]
inactive: MAPK1; 2.5 µM 0 | MAPK4; 2.5 µM 0 | MAPKAPK2; 2.5 µM 0 | MKNK1; 2.5 µM 0 | NTRK2; 2.5 µM 0 | NTRK3; 2.5 µM 0 | PAK4; 2.5 µM 0 | PBK; 2.5 µM 0 | PDGFRB; 2.5 µM 0 | PDK1; 2.5 µM 0

CCCOc1ccc(C=C2SC(=O)NC2=O)cc1
inactive: MAPK1; 10 µM 0 | MAPK4; 10 µM 0 | MAPKAPK2; 10 µM 0 | MKNK1; 10 µM 0 | NTRK2; 10 µM 0 | NTRK3; 10 µM 0 | PAK4; 10 µM 0 | PBK; 10 µM 0 | PDGFRB; 10 µM 0 | PDK1; 10 µM 0

C[C@@H]1CN(C(=O)Nc2ccc(-c3nc(N4CCOCC4)c4cnn(CCCCCCC(=O)NO)c4n3)cc2)CCO1 [HDACs/mTOR Inhibitor 1]
inactive: MAPK1; 10 µM 0 | MAPK4; 10 µM 0 | MAPKAPK2; 10 µM 0 | MKNK1; 10 µM 0 | NTRK2; 10 µM 0 | NTRK3; 10 µM 0 | PAK4; 10 µM 0 | PBK; 10 µM 0 | PDGFRB; 10 µM 0 | PDK1; 10 µM 0

C[C@H]1CN(C2COC2)CCN1c1ccc(Nc2cc(-c3ccnc(N4CCn5c(cc6c5CC(C)(C)C6)C4=O)c3CO)cn(C)c2=O)nc1 [Fenebrutinib]
inactive: MAPK1; 10 µM 0 | MAPK4; 10 µM 0 | MAPKAPK2; 10 µM 0 | MKNK1; 10 µM 0 | NTRK2; 10 µM 0 | NTRK3; 10 µM 0 | PAK4; 10 µM 0 | PBK; 10 µM 0 | PDGFRB; 10 µM 0 | PDK1; 10 µM 0

COc1nccc(-c2c(-c3ccc(F)cc3)ncn2C2CCNCC2)n1
inactive: MAPK1; 10 µM 0 | MAPK4; 10 µM 0 | MAPKAPK2; 10 µM 0 | MKNK1; 10 µM 0 | NTRK2; 10 µM 0 | NTRK3; 10 µM 0 | PAK4; 10 µM 0 | PBK; 10 µM 0 | PDGFRB; 10 µM 0 | PDK1; 10 µM 0

Cc1cc2c(F)c(Oc3ncnn4cc(OC[C@@H](C)O)c(C)c34)ccc2[nH]1 [Brivanib]
inactive: MAPK1; 10 µM 0 | MAPK4; 10 µM 0 | MAPKAPK2; 10 µM 0 | MKNK1; 10 µM 0 | NTRK2; 10 µM 0 | NTRK3; 10 µM 0 | PAK4; 10 µM 0 | PBK; 10 µM 0 | PDGFRB; 10 µM 0 | PDK1; 10 µM 0

Nc1ncnc2n[nH]c(-c3ccc(Oc4ccccc4)cc3)c12 [Ibrutinib deacryloylpiperidine]
inactive: MAPK1; 10 µM 0 | MAPK4; 10 µM 0 | MAPKAPK2; 10 µM 0 | MKNK1; 10 µM 0 | NTRK2; 10 µM 0 | NTRK3; 10 µM 0 | PAK4; 10 µM 0 | PBK; 10 µM 0 | PDGFRB; 10 µM 0 | PDK1; 10 µM 0

CCCCCC1CC1CC1CC1CCCCCCCC(=O)OC (stereo not given)
inactive: MAPK1; 10 µM 0 | MAPK4; 10 µM 0 | MAPKAPK2; 10 µM 0 | MKNK1; 10 µM 0 | NTRK2; 10 µM 0 | NTRK3; 10 µM 0 | PAK4; 10 µM 0 | PBK; 10 µM 0 | PDGFRB; 10 µM 0 | PDK1; 10 µM 0

CCOc1cc2ncc(C#N)c(Nc3ccc(F)c(Cl)c3)c2cc1NC(=O)/C=C/CN(C)C [Pelitinib]
inactive: MAPK1; 2.5 µM 0 | MAPK4; 2.5 µM 0 | MAPKAPK2; 2.5 µM 0 | MKNK1; 2.5 µM 0 | NTRK2; 2.5 µM 0 | NTRK3; 2.5 µM 0 | PAK4; 2.5 µM 0 | PBK; 2.5 µM 0 | PDGFRB; 2.5 µM 0 | PDK1; 2.5 µM 0
